Data as given in PubChem BioAssay AID1159544 (Gurdon Institute, 2015).
Assay: 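E2 ubiquitin-conjugating enzymes required to build or resolve radiation-induced repair foci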 (primary screen). Cell system: human U2OS osteosarcoma cells. Knock-down reagent: siRNA against human genes, about 60 nM siRNA. Duration: about 3 days from transfection to irradiation, then fixed 30 min to 24 h later. Conditions: ionising radiation, 2 Gy; fixed 30 min, 2 h, 8 h or 24 h later; untreated plates as reference. Measured: 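Confocal images of DAPI-defined nuclei stained with FK2 against conjugated ubiquitin; foci detected automatically, counted per nucleus and averaged per well as raw means without normalisation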. Direction: FK2 foci per cell, 30 min post-IR: higher = more ubiquitin foci early after irradiation; FK2 foci per cell, unirradiated: higher = more ubiquitin foci without irradiation; FK2 foci per cell, 2 h post-IR: higher = more ubiquitin foci 2 h after irradiation; FK2 foci per cell, 24 h post-IR: higher = more ubiquitin foci persisting a day later. Rule for the call: 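a knock-down counts as active if its averaged foci count at 30 min post-irradiation lies over 40% above or below the luciferase siRNA average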.
The deposit covers 41 reagents; shown is a random part of those that have a named target and a result. Of all reagents, 13 (32%) are marked active. 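Values are raw well means without normalisation; calls set replicate averages against a luciferase siRNA control; from a single screening run.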 Entries without a mark were called inactive. Repeated entries: replicate wells of the same siRNA.

| target | PubChem SID | FK2 foci per cell, 30 min post-IR | FK2 foci per cell, unirradiated | FK2 foci per cell, 2 h post-IR | FK2 foci per cell, 24 h post-IR |
| --- | --- | --- | --- | --- | --- |
| UBE2J2 | SID252256121 | 19.4 | 6.51 | 13.5 | 8.67 |
| UBE2J2 | SID252256121 | 19 | 6.87 | 13.3 | 7.88 |
| BIRC6 | SID252256106 | 11.3 | 4.12 | 7.62 | 3.67 |
| BIRC6 | SID252256106 | 11.9 | 4.2 | 7.38 | 3.79 |
| UBE2NL | SID252256128 | 10.9 | 5.02 | 7.81 | 3.9 |
| UBE2NL | SID252256128 | 10.8 | 4.72 | 7.07 | 3.62 |
| UBE2N | SID252256126 | 15.6 | 16.2 | 11.8 | 16.3 |
| UBE2N | SID252256126 | 14.7 | 13.4 | 12 | 14.9 |
| UBE2N | SID252256127 | 15.6 | 7.32 | 11 | 10 |
| UBE2N | SID252256127 | 15.1 | 7.61 | 10.8 | 11.1 |
| UBE2A | SID252256104 | 9.33 | 3.94 | 6.97 | 5.25 |
| UBE2A | SID252256104 | 9.55 | 3.83 | 7.38 | 4.58 |
| UBE2Q2 | SID252256131 | 5.52 (active) | 2.05 | 3.25 | 2.25 |
| UBE2Q2 | SID252256131 | 4.48 (active) | 1.95 | 3.55 | 2.23 |
| UBE2S | SID252256134 | 12.3 | 5.04 | 7.92 | 4.57 |
| UBE2S | SID252256134 | 12.5 | 4.78 | 8.81 | 5.69 |
| UBE2E1 | SID252256112 | 17.5 | 6.4 | 12.3 | 3.8 |
| UBE2E1 | SID252256112 | 17.9 | 6.54 | 12.2 | 4.14 |
| UBE2C | SID252256107 | 12.3 | 4.41 | 8.24 | 3.04 |
| UBE2C | SID252256107 | 11.6 | 4.38 | 8.32 | 2.82 |
| UBE2G2 | SID252256118 | 9.52 | 4.55 | 7.18 | 4.98 |
| UBE2G2 | SID252256118 | 9.7 | 4.46 | 7.04 | 4.58 |
| UBE2D3 | SID252256110 | 2.25 (active) | 1.39 | 1.26 | 0.854 |
| UBE2D3 | SID252256110 | 1.84 (active) | 2.05 | 1.27 | 1.2 |
| UBE2G1 | SID252256117 | 6.75 (active) | 3.15 | 5.15 | 4.45 |
| UBE2G1 | SID252256117 | 8.64 (active) | 3.06 | 5.37 | 4.67 |
| UBE2U | SID252256137 | 9.49 | 3.33 | 6.17 | 2.72 |
| UBE2U | SID252256137 | 9.04 | 3 | 5.83 | 2.6 |
| UBE2F | SID252256115 | 14.8 | 4.82 | 11.2 | 5.88 |
| UBE2F | SID252256115 | 14.4 | 4.99 | 10.5 | 5.87 |
| UBE2H | SID252256119 | 13.1 | 5.36 | 8.71 | 4.97 |
| UBE2H | SID252256119 | 16.1 | 5.56 | 8.8 | 4.74 |
| UBE2K | SID252256122 | 5.44 (active) | 3.44 | 4.65 | 3.42 |
| UBE2K | SID252256122 | 5.23 (active) | 3.37 | 4.75 | 3.59 |
| UBE2D4 | SID252256111 | 20 | 8.05 | 15.3 | 5.74 |
| UBE2D4 | SID252256111 | 21.3 | 7.86 | 15.7 | 6.27 |
| UBE2Z | SID252256142 | 9.81 | 4.03 | 6.98 | 5.27 |
| UBE2Z | SID252256142 | 9.39 | 4.43 | 6.61 | 5.36 |
| UBE2V1 | SID252256139 | 4.99 (active) | 1.41 | 2.79 | 1.48 |
| UBE2V1 | SID252256139 | 5.25 (active) | 1.27 | 3.26 | 1.59 |

Reprinted from the listing for reference:
| target | PubChem SID | FK2 foci per cell, 30 min post-IR | FK2 foci per cell, unirradiated | FK2 foci per cell, 2 h post-IR | FK2 foci per cell, 24 h post-IR |
| --- | --- | --- | --- | --- | --- |
| UBE2S | SID252256134 | 12.3 | 5.04 | 7.92 | 4.57 |
| UBE2S | SID252256134 | 12.5 | 4.78 | 8.81 | 5.69 |
| UBE2E1 | SID252256112 | 17.5 | 6.4 | 12.3 | 3.8 |
| UBE2E1 | SID252256112 | 17.9 | 6.54 | 12.2 | 4.14 |
